# ChEMBL document CHEMBL4296183, “CO-ADD screening of NIH NCI Natural Product Set III” (2020)
# The other results are listed elsewhere or left out. Potency and affinity values are given separately.
# System: Pseudomonas aeruginosa
# Settings: Concentration 20 uM; ASSAY_TEST Inhibition of Bacterial Growth; detection method Absorption (OD600); MEDIA CAMHB; plate type 384well; NBS; CORNING #3640; time 18 hr
row,Compound,Inhibition
1,CC12C(=O)C=CCC1=CCC1C2CCC2(O)C(=O)OC3(C)C4CC5(C)C(COC16OC23C5C6=O)C(=O)O4 (stereo not given),11.11%
2,COc1ccc2c(c1OC)CN1CCc3cc4c(cc3C1C2)OCO4 (stereo not given) [TETRAHYDROBERBERINE],8.62%
3,CC1CCC2C(C)C(=O)OC3OC4(C)CCC1C32OO4 (stereo not given),14.6%
4,COc1ccc2c3c([nH]c2c1)[C@H](C=C(C)C)N1C(=O)[C@@H]2CCCN2C(=O)[C@@H]1C3 [FUMITREMORGIN],5.98%
5,COC1C(O)C(C)OC(OC2C(Oc3cccc4c(O)c5c(=O)oc6ccc(C)c7c(=O)oc(c34)c5c67)OC(C)C(O)C2O)C1O (stereo not given),4.96%
6,COc1cccc2c1cc([N+](=O)[O-])c1c(C(=O)O)cc3c(c12)OCO3 [ARISTOLOCHIC ACID],7.59%
7,C=C1C(=O)O[C@@H]2C[C@@H](C)[C@@H]3C=CC(=O)[C@@]3(C)[C@@H](O)[C@H]12 [HELENALIN],6.82%
8,CCN1C[C@]2(COC)[C@H](O)C[C@H](OC)[C@]34C1[C@H]([C@H](OC)[C@H]23)[C@]1(OC(C)=O)[C@H]2[C@@H](OC(=O)c3ccccc3)[C@](O)(C[C@H]24)[C@@H](OC)[C@@H]1O,6.99%
9,CC(C)(O)C1C2OC(=O)C1C1(O)CC3OC34C(=O)OC2C14C (stereo not given),9.3%
10,CC(=O)OC(C)(C)/C=C/C(=O)[C@](C)(O)[C@H]1[C@H](O)C[C@@]2(C)[C@@H]3CC=C4[C@@H](C=C(O)C(=O)C4(C)C)[C@]3(C)C(=O)C[C@]12C [CUCURBITACIN E],1.68%
11,O=P1(N(CCCl)CCCl)NCCCO1 (stereo not given) [CYCLOPHOSPHAMIDE ANHYDROUS],15.65%
12,CC1CCC2C(C)C3C(CC4C5CC=C6CC(OC7OC(CO)C(O)C(OC8OC(CO)C(O)C(O)C8O)C7OC7OC(C)C(O)C(O)C7O)CCC6(C)C5CCC43C)N2C1.Cl (stereo not given),1.35%
13,COc1ccc(C(=O)O[C@H]2CC[C@@]3(C)[C@@H]4CC[C@H]5[C@]6(O)C[C@H](O)[C@@]7(O)[C@@H](CN8C[C@@H](C)CC[C@H]8[C@@]7(C)O)[C@]6(O)C[C@@]53OC24O)cc1OC,11.38%
14,C1CCC(NC2CCCCC2)CC1.COC1C(OC(=O)/C=C/C=C/C=C/C=C/C(=O)O)CCC2(CO2)C1C1(C)OC1CC=C(C)C (stereo not given),15.35%
15,C=C1C(=O)OC2C1CCC(C)C1(O)C=CC(=O)C21C (stereo not given),-0.11%
16,CCCCCC(O)C1C(=O)OC(C)C(O)/C=C/C=C/C=C/C=C/C=C(\C)C(O)C(O)C(O)CC(O)CC(O)CC(O)CC(O)CC1O (stereo not given),9.17%
17,CC[C@](C)(O)C(=O)O[C@H]1C(=O)O[C@@H]2C[C@H]3C(C)=C[C@H](O)[C@@H](O)[C@]3(C)[C@H]3[C@@]4(O)OC[C@]32[C@@H]1[C@@H](C)[C@H]4O,10.88%
18,OC1CN2CC[C@H](O)[C@@H]2C(O)[C@@H]1O (stereo not given in full),5.53%
19,CC(=O)O[C@@H]1[C@@H](O)C2=C3[C@]4(C)[C@@H]1C(C)(C)C(=O)C[C@@H]4[C@]3(O)[C@H](OC(C)=O)[C@@]1(C[C@@H]1C)C2=O,9.27%
20,C=C1C(C)C2C(Cc3ccccc3)NC(=O)C23C(OC(C)=O)/C=C/C(C)(O)CC(C)C/C=C/C3C1O (stereo not given),0.72%
21,CN1CCc2cc3c(cc2[C@H]1[C@@H]1OC(=O)c2c1ccc1c2OCO1)OCO3 [BICUCULLINE],17.91%
22,COc1ccc2c(c1O)-c1c(OC)c(OC)cc3c1C(C2)N(C)CC3 (stereo not given),17.01%
23,CO[C@@H]1[C@H](O)CC[C@]2(CO2)[C@H]1[C@@]1(C)O[C@@H]1CC=C(C)C,6.36%
24,CC[C@H]1CN2CCc3cc(OC)c(OC)cc3[C@@H]2C[C@@H]1C[C@H]1NCCc2c1[nH]c1ccc(O)cc21 [TUBULOSINE],10.54%
25,COc1c2c(c(CC=C(C)C)c3oc(=O)c(-c4ccc(O)cc4)c(O)c13)OC(C)(C)C=C2 [LONCHOCARPIC ACID],8.58%
26,C[C@H]1CCC/C=C/[C@@H]2C[C@H](O)C[C@H]2[C@H](O)/C=C/C(=O)O1 [BREFELDIN A],10.94%
27,CCC/C=C/C=C/C(=O)OC1/C(=C/C(=O)OC)CC2CC(C(C)O)OC(=O)CC(O)CC3CC(OC(C)=O)C(C)(C)C(O)(CC4C/C(=C/C(=O)OC)CC(/C=C/C(C)(C)C1(O)O2)O4)O3 (stereo not given),12.17%
28,CC[C@@]1(O)C(=O)OCc2c1cc1n(c2=O)Cc2cc3ccccc3nc2-1 [CAMPTOTHECIN],11.38%
29,CC1OC(=O)C2CC3CCCCC3C(/C=C/C3CCCC(C)N3C)C12 (stereo not given),8.42%
30,CC(O)CCC(=O)c1ccoc1 (stereo not given),-0.58%

# Among those listed so far, 2 contain a COOH group:
row,Compound,Inhibition
6,COc1cccc2c1cc([N+](=O)[O-])c1c(C(=O)O)cc3c(c12)OCO3 [ARISTOLOCHIC ACID],7.59%
14,C1CCC(NC2CCCCC2)CC1.COC1C(OC(=O)/C=C/C=C/C=C/C=C/C(=O)O)CCC2(CO2)C1C1(C)OC1CC=C(C)C (stereo not given),15.35%
